Results reported in paper PMC8443046.

Sequences of proteins named here, by UniProt entry; tags and fusion partners are left off. A change or cut given only in a name is not applied to a line headed by its entry.
UniProt A0ABF7PFJ0: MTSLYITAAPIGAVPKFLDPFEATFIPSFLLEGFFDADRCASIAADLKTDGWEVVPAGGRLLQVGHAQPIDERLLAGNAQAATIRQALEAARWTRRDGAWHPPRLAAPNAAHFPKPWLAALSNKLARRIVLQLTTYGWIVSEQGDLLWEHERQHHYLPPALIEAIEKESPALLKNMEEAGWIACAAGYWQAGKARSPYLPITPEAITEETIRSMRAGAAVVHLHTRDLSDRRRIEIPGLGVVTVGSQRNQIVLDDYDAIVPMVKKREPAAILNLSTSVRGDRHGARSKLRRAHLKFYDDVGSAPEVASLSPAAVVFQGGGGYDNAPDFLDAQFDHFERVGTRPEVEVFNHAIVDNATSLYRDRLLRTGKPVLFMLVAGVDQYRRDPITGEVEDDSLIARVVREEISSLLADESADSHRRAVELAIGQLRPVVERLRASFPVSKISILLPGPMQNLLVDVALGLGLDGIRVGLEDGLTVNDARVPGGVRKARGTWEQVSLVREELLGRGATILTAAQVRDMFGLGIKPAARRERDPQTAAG

Molecular target: ATP-dependent Lon protease of Burkholderia glumae BGR1 (bglu_1g13520) (Burkholderia glumae BGR1 (endogenous in B. glumae))
Test: co-IP; Pierce Direct IP kit; anti-ObcB or anti-Lon antibody (10 ug) coupled to AminoLink Plus resin; lysate of B. glumae BGR1 wild type (early stationary phase, 1 mg protein), 4°C, 24 h; western blot with anti-ObcA or anti-ObcB

binding: binds
Substance: ObcA, oxalate biosynthetic enzyme of Burkholderia glumae (bglu_2g18790) (from UniProt A0ABF7PFJ0)

No constants are given. Whether binding was seen depends on the method and setting. In cells and extracts the contact can be indirect. A result given as binding can be weak or reduced; the word gives no strength.
